Assay results reported in patent publication US11858934B1, “Substituted pyrido[4′,3′:5,6]pyrimido[1,2-a]indoles as CK2 inhibitors” (KING FAISAL UNIVERSITY, priority 2023, dated 2024).

How the values were obtained:
Type in all cases: cell-based
A375 (melanoma) = assay: MTT in vitro cytotoxic activity assay, A375; conditions: Homo sapiens, A-375; A375 (melanoma) cells, exposed for 96 hours; read-out: IC50, 50% inhibition of cell proliferation
Method: (§1) Compounds 1-12 were screened for their in vitro cytotoxic activity utilizing a 3-(4,5-dimethyl-thiazol-2-yl)-2,5-diphenyltetrazolium bromide (MTT) assay against selected cancer human cell lines consisting of PC3 (prostate), HCT116 (colon), A375 (melanoma), H1299 (lung), MIAPaCa-2 (pancreas), HL60 (leukemia), MCF7 (breast), MDA-MB-231 (breast) (T. Mosmann, J. Immunol. Meth., 1983, 65, 55-63). The cells were cultured at 37° C. in RMPI1640 medium supplemented with 10% fetal bovine serum, 50 IU/mL penicillin, and 50 μg/mL streptomycin in a 5% CO2 incubator. All cells were sub-cultured 3 times/week by trypsinisation. Viable cells were seeded and allowed to adhere for 12 h before a test drug was added in 96-well plates at an initial density of 1.0×10^5 cells/mL. Tumour cell lines were separately exposed to various concentrations of the tested compounds followed by incubation at a temperature of 37° C. during 96 h inside a medium of fresh RMPI 1640. Cells were subsequently incubated at 37° C. using MTT at 0.5 mg/mL during 4 h. After removal of supernatant, formazan crystals were dissolved in isopropanol and the optical density was measured at 570 nm. CX-4945 was used as a positive control.

MDA-MB-231 (breast) = assay: MTT in vitro cytotoxic activity assay, MDA-MB-231; conditions: Homo sapiens; MDA-MB-231 (breast) cells, exposed for 96 hours; read-out: IC50, 50% inhibition of cell proliferation
Method: as §1

PC3 (prostate) = assay: MTT in vitro cytotoxic activity assay, PC3; conditions: Homo sapiens, Prostate cell; PC3 (prostate) cells, exposed for 96 hours; read-out: IC50, 50% inhibition of cell proliferation
Method: as §1

H1299 (lung) = assay: MTT in vitro cytotoxic activity assay, H1299; conditions: Homo sapiens, NCI-H1299; H1299 (lung) cells, exposed for 96 hours; read-out: IC50, 50% inhibition of cell proliferation
Method: as §1

HL60 (leukemia) = assay: MTT in vitro cytotoxic activity assay, HL60; conditions: Homo sapiens, HL-60; HL60 (leukemia) cells, exposed for 96 hours; read-out: IC50, 50% inhibition of cell proliferation
Method: as §1

MCF7 (breast) = assay: MTT in vitro cytotoxic activity assay, MCF7; conditions: Homo sapiens; MCF7 (breast) cells, exposed for 96 hours; read-out: IC50, 50% inhibition of cell proliferation
Method: as §1

MIAPaCa-2 (pancreas) = assay: MTT in vitro cytotoxic activity assay, MIAPaCa-2; conditions: Homo sapiens, MIA PaCa-2; MIAPaCa-2 (pancreas) cells, exposed for 96 hours; read-out: IC50, 50% inhibition of cell proliferation
Method: as §1

HCT116 (colon) = assay: MTT in vitro cytotoxic activity assay, HCT116; conditions: Homo sapiens, HCT-116; HCT116 (colon) cells, exposed for 96 hours; read-out: IC50, 50% inhibition of cell proliferation
Method: as §1

Structure (SMILES): O=C(O)c1ccc2c(c1)nc(Nc1cccc(Cl)c1)c1ccncc12 [CX-4945, reference compound]
- IC50 (A375 (melanoma)): 4.1 µM
- IC50 (MDA-MB-231 (breast)): 6.2 µM
- IC50 (PC3 (prostate)): 2000 nM
- IC50 (H1299 (lung)): 2300 nM
- IC50 (HL60 (leukemia)): 3.7 µM
- IC50 (MCF7 (breast)): 9.1 µM
- IC50 (MIAPaCa-2 (pancreas)): 1000 nM
- IC50 (HCT116 (colon)): 2300 nM
